PubChem BioAssay AID1259424 | University of Nebraska Medical Center, 2018

Test: 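Rank knockdowns across the genome by resemblance to the KSR1 depletion profile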 (primary screen)
System: human HCT116 colon cancer cells
Knock-down reagent: siRNA pool against human genes, 50 nM
Measurement: 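Log2 levels of six mRNAs (branched-DNA multiplex), adjusted by two reference genes and the non-targeting median, then scored against the average KSR1 knockdown pattern as Pearson r and euclidean distance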
Scale: mean correlation with KSR1 profile: higher = expression change more like KSR1 knockdown
The deposit covers about 14,000 reagents; this is a part drawn at random. 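Higher correlation or smaller distance means closer resemblance to KSR1 loss; control wells, including KSR1 knockdowns, recur on many plates.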 Further read-outs or replicates are left out here. No sequences are given here. Not given: the time to read-out.

| mean correlation with KSR1 profile | target gene |
| --- | --- |
| -0.461 | NCR2 |
| 0.419 | COG4 |
| -0.532 | TOP2A |
| 0.284 | RAB25 |
| -0.0687 | IFI16 |
| -0.961 | TRMT11 |
| -0.376 | PMEPA1 |
| -0.0744 | PLEKHM1 |
| 0.685 | GIT2 |
| -0.0486 | PLAA |
| 0.119 | SLAMF6 |
| 0.756 | TBL1XR1 |
| 0.871 | SLC7A6 |
| 0.138 | PAX4 |
| -0.614 | ELOC |
| -0.221 | SUOX |
| -0.124 | SULF1 |
| -0.00677 | PKLR |
| -0.0333 | ELN |
| -0.0255 | ZNF624 |
| 0.523 | ADRA2C |
| 0.692 | PHF2 |
| 0.454 | FBXL17 |
| 0.534 | MRPL14 |
| 0.788 | HYCC1 |
| 0.047 | TMPRSS11D |
| -0.464 | MUC3B |
| 0.251 | ZNF22 |
| -0.726 | PTEN |
| -0.406 | TMEM260 |
| -0.355 | CTDNEP1 |
| 0.584 | GATAD2B |
| 0.209 | DNAJA1 |
| -0.12 | MDM2 |
| 0.553 | TP53RK |
| 0.446 | ISOC2 |
| 0.221 | CPED1 |
| 0.451 | POLQ |
| 0.0787 | ITPR1 |
| 0.026 | RGR |
| 0.564 | SLITRK6 |
| -0.432 | CYP19A1 |
| -0.303 | PGAM2 |
| 0.73 | ZNF182 |
| 0.00203 | AHSA1 |
| 0.667 | GRM6 |
| 0.187 | SYNPO |
| 0.341 | HOXA4 |
| -0.524 | IVL |
| -0.416 | SNURF |
| 0.456 | MCM6 |
| -0.0171 | NANP |
| 0.755 | TAS2R14 |
| -0.822 | MECR |
| 0.119 | NABP2 |
| 0.0727 | PDIA6 |
| -0.334 | RSPH14 |
| 0.102 | MBTPS1 |
| -0.55 | STX8 |
| -0.000941 | CYTL1 |
| 0.566 | PSMD7 |
| -0.441 | HP1BP3 |
| 0.32 | SHARPIN |

Targets above whose gene name starts with H or h:
| mean correlation with KSR1 profile | target gene |
| --- | --- |
| 0.788 | HYCC1 |
| 0.341 | HOXA4 |
| -0.441 | HP1BP3 |
